According to US20260206754A1, “HETEROARYL COMPOUNDS FOR THE CONTROL OF INVERTEBRATE PESTS” (priority 2022, published 2026):
Some entries share one result that the patent states for a list of compounds. At least one compound was matched to its structure with a doubt left.

What was measured:
Format in all cases: in vivo
[1] = test system: Southern armyworm (Spodoptera eridania), 2nd instar larvae; test: B.3 Southern armyworm, 2nd instar larvae, foliar spray on lima bean plants; conditions: 300 ppm; 4 days after treatment
Protocol: B.3 Southern Armyworm (Spodoptera eridania), 2nd Instar Larvae
The active compounds were formulated by a Tecan liquid handler in 100% cyclohexanone as a 10,000-ppm solution supplied in tubes. The 10,000-ppm solution was serially diluted in 100% cyclohexanone to make interim solutions. These served as stock solutions for which final dilutions were made by the Tecan in 50% acetone:50% water (v/v) into 10 or 20 ml glass vials. A non-ionic surfactant (Kinetic@) was included in the solution at a volume of 0.01% (v/v). The vials were then inserted into an automated electrostatic sprayer equipped with an atomizing nozzle for application to plants/insects. Lima bean plants (variety Sieva) were grown 2 plants to a pot and selected for treatment at the 1st true leaf stage. Test solutions were sprayed onto the foliage by an auto-mated electrostatic plant sprayer equipped with an atomizing spray nozzle. The plants were dried in the sprayer fume hood and then removed from the sprayer. Each pot was placed into perforated plastic bags with a zip closure. Ten to 11 armyworm larvae were placed into the bag and the bags zipped closed. Test plants were maintained in a growth room at about 25° C. and about 20-40% relative humidity for 4 days, avoiding direct exposure to fluorescent light (14:10 light:dark photoperiod) to prevent trapping of heat inside the bags. Mortality and reduced feeding were assessed 4 days after treatment, compared to untreated control plants.

[2] = test system: green peach aphid (Myzus persicae); test: B.6 Green peach aphid, systemic test with artificial diet under membrane; conditions: 2500 ppm; aphid mortality after 3 days
Protocol: (§1) If not otherwise specified, the test solutions were prepared as follow: The active compound was dissolved at the desired concentration in a mixture of 1:1 (vol:vol) distilled water:acetone. The test solution was prepared on the day of use.
B.6 Green Peach Aphid (Myzus persicae)
For evaluating control of green peach aphid (Myzus persicae) through systemic means, the test unit consisted of 96-well-microtiter plates containing liquid artificial diet under an artificial membrane.
The compounds were formulated using a solution containing 75% v/v water and 25% v/v DMSO. Different concentrations of formulated compounds were pipetted into the aphid diet, using a custom built pipetter, at two replications.
After application, 5-8 adult aphids were placed on the artificial membrane inside the microtiter plate wells. The aphids were then allowed to suck on the treated aphid diet and incubated at about 23±1° C. and about 50±5% relative humidity for 3 days. Aphid mortality and fecundity was then visually assessed.

[3] = test system: tobacco budworm (Heliothis virescens); test: B.1 Tobacco budworm, 96-well microtiter plate diet test with eggs; conditions: 2500 ppm; egg and larval mortality after 5 days
Protocol: as §1
B.1 Tobacco Budworm (Heliothis virescens)
For evaluating control of tobacco budworm (Heliothis virescens) the test unit consisted of 96-well-microtiter plates containing an insect diet and 15-25 H. virescens eggs.
The compounds were formulated using a solution containing 75% v/v water and 25% v/v DMSO. Different concentrations of formulated compounds were sprayed onto the insect diet at 10 μl, using a custom-built micro atomizer, at two replications.
After application, microtiter plates were incubated at about 28±1° C. and about 80±5% relative humidity for 5 days. Egg and larval mortality was then visually assessed.

[4] = test system: yellow fever mosquito (Aedes aegypti); conditions: 2500 ppm; larval mortality after 2 days
Protocol: as §1
B.5 Yellow Fever Mosquito (Aedes aegypti)
For evaluating control of yellow fever mosquito (Aedes aegypti) the test unit consisted of 96-well-microtiter plates containing 200 μl of tap water per well and 5-15 freshly hatched A. aegypti larvae.
The active compounds were formulated using a solution containing 75% (v/v) water and 25% (v/v) DMSO. Different concentrations of formulated compounds or mixtures were sprayed onto the insect diet at 2.5 μl, using a custom-built micro atomizer, at two replications.
After application, microtiter plates were incubated at 281° C., 80±5% RH for 2 days. Larval mortality was then visually assessed.

[5] = test system: boll weevil (Anthonomus grandis); test: B.2 Boll weevil, 96-well microtiter plate diet test with eggs; conditions: 2500 ppm; egg and larval mortality after 5 days
Protocol: as §1
B.2 Boll Weevil (Anthonomus grandis)
For evaluating control of boll weevil (Anthonomus grandis) the test unit consisted of 96-well-microtiter plates containing an insect diet and 5-10 A. grandis eggs.
The compounds were formulated using a solution containing 75% v/v water and 25% v/v DMSO. Different concentrations of formulated compounds were sprayed onto the insect diet at 5 μl, using a custom-built micro atomizer, at two replications.
After application, microtiter plates were incubated at about 25±1° C. and about 75±5% relative humidity for 5 days. Egg and larval mortality was then visually assessed.

Measured: mortality in comparison with untreated controls

CC(NC(=O)c1cc(Br)cc(C2(C#N)CC2)c1)c1nccnc1-n1cc(S(C)(=O)=O)cn1 (stereo not shown) [I-40]
at least 75%: all assays above

CC(NC(=O)c1cc(Cl)cc(C(F)(F)F)c1)c1ncccc1-n1cc(C#N)cn1 (stereo not shown) [I-2]
at least 75%: [4] | [5]

CC(NC(=O)c1cc(C(F)(F)F)cc(C(F)(F)F)c1)c1nccnc1-n1cc(-c2ccccc2F)cn1 (stereo not shown) [I-41]
at least 75%: [3] | [5]

CC(NC(=O)c1cc(C(F)(F)F)cc(C(F)(F)F)c1)c1nccnc1-n1cc(-c2cccnc2)cn1 (stereo not shown) [I-11]
not listed: [1]
at least 75%: all other assays above

CC(c1nc(Cl)ccc1-n1nccn1)N(CC1CC1)C(=O)c1cc(Cl)cc(C(F)(F)F)c1 (stereo not shown) [I-5, 3-chloro-N-[1-[6-chloro-3-(triazol-2-yl)-2-pyridyl]ethyl]-N-(cyclopropylmethyl)-5-(trifluoromethyl)benzamide]
at least 75%: [1] | [4]

CC(NC(=O)c1cc(C(F)(F)F)cc(C(F)(F)F)c1)c1nccnc1-n1cc(S(=O)(=O)C(C)(C)C)cn1 (stereo not shown) [I-72]
at least 75%: [3]

CC(NC(=O)c1cc(C(F)(F)F)cc(C(F)(F)F)c1)c1nccnc1-n1ncc(-c2ccc(Br)cn2)n1 (stereo not shown) [I-21, N-[1-[3-[4-(5-bromo-2-pyridyl)triazol-2-yl]pyrazin-2-yl]ethyl]-3,5-bis(trifluoromethyl)benzamide]
at least 75%: all assays above

CC(NC(=O)c1cc(C(F)(F)F)cc(C(F)(F)F)c1)c1nccnc1-n1cc(NS(=O)(=O)Cc2ccccc2)cn1 (stereo not shown) [I-50]
not listed: [2]
at least 75%: all other assays above

CC(NC(=O)c1cc(Cl)nc(OC(F)(F)F)c1)c1nccnc1-n1cc(S(C)(=O)=O)cn1 (stereo not shown) [I-33]
not listed: [2]
at least 75%: all other assays above

CC(NC(=O)c1cc(C(F)(F)F)cc(C(F)(F)F)c1)c1nccnc1-n1cc(SC2CC2)cn1 (stereo not shown) [I-63]
at least 75%: [3] | [4] | [5]

CC(NC(=O)c1cc(Cl)cc(C(F)(F)F)c1)c1nc(Cl)ccc1-n1nccn1 (stereo not shown) [I-3, 3-chloro-N-[1-[6-chloro-3-(triazol-2-yl)-2-pyridyl]ethyl]-5-(trifluoromethyl)benzamide]
not listed: [2]
at least 75%: all other assays above

CC(NC(=O)c1cc(Cl)cc(OC(F)F)c1)c1nccnc1-n1cc(S(C)(=O)=O)cn1 (stereo not shown) [I-37]
at least 75%: all assays above

CC(NC(=O)c1cc(C(F)(F)F)cc(C(F)(F)F)c1)c1nccnc1-n1cc(N2CCOCC2)cn1 (stereo not shown) [I-47]
not listed: [2]
at least 75%: all other assays above

CC(NC(=O)c1cc(C(F)(F)F)cc(C(F)(F)F)c1)c1nccnc1-n1cc(-c2cccs2)cn1 (stereo not shown) [I-71]
at least 75%: [5]

CC(NC(=O)c1cc(C(F)(F)F)cc(C(F)(F)F)c1)c1nccc(Cl)c1-n1nccn1 (stereo not shown) [I-68, N-[1-[4-chloro-3-(triazol-2-yl)-2-pyridyl]ethyl]-3,5-bis(trifluoro-methyl)benzamide]
at least 75%: [3] | [4] | [5]

CC(NC(=O)c1cc(C(F)(F)F)cc(C(F)(F)F)c1)c1nccnc1-n1cc(-c2ccc(Br)cn2)nn1 (stereo not shown) [I-22]
at least 75%: [3]

CC(NC(=O)c1cc(Cl)cc(S(C)(=O)=O)c1)c1nccnc1-n1cc(-c2ccccn2)nn1 (stereo not shown) [I-25]
at least 75%: [2] | [4] | [5]

CC(NC(=O)c1cc(C(F)(F)F)cc(C(F)(F)F)c1)c1nccnc1-n1cc([S+]([O-])C2CC2)cn1 (stereo not shown) [I-64]
not listed: [1]
at least 75%: all other assays above

CC(c1nccnc1-n1cc(-c2cccnc2)nn1)N(CC1CC1)C(=O)c1cc(C(F)(F)F)cc(C(F)(F)F)c1 (stereo not shown) [I-13, N-(cyclopropylmethyl)-N-[1-[3-[4-(3-pyridyl)triazol-1-yl]pyrazin-2-yl]ethyl]-3,5-bis(trifluoromethyl)benzamide]
at least 75%: [2] | [5]

CC(NC(=O)c1cc(C(F)(F)F)cc(C(F)(F)F)c1)c1nccnc1-n1ncc(-c2ccccc2)n1 (stereo not shown) [I-16]
not listed: [2]
at least 75%: all other assays above

CC(NC(=O)c1cc(C(F)(F)F)cc(C(F)(F)F)c1)c1nccnc1-n1cc(-c2cccc(Cl)n2)cn1 (stereo not shown) [I-70]
at least 75%: [3] | [4] | [5]

CC(NC(=O)c1cc(C(F)(F)F)cc(C(F)(F)F)c1)c1nc(Cl)ccc1-n1nccn1 (stereo not shown) [I-4]
not listed: [2]
at least 75%: all other assays above

CC(NC(=O)c1cc(Cl)cc(C(F)(F)F)c1)c1nc(C2CC2)ccc1-n1nccn1 (stereo not shown) [I-7]
at least 75%: [3] | [4]

Cc1ccc(-n2nccn2)c(C(C)NC(=O)c2cc(Cl)cc(C(F)(F)F)c2)n1 (stereo not shown) [I-6]
at least 75%: [4]
